# Measured values reported in the supplement of paper PMC8728848.
# Some of the results follow.
# B1: SP15308B-bot-339-22-339 (Bacteroides ovatus) (protein)
# chain: NEWEDEQYEQYVSFKAPIASGSDGVTTIYVRYKDNGKVTYQLPIIVSGSTVNSQDRDIHIAVDKDTLKTLNIERFSLYRPELWYTEMEEDKYEFPETVHIPAGSCVELLNIDFNLQDIDMLEKWVLPLTIVDDGSYAYQSHPRKNYAKALLKVVPFNNYSGSYTASSMKVYTYINGKPDTNARTTDKRTGYVVDNNSIFFYAGLINEDMDKDMRKKYKINVHFKEDGTLDMKQDDPSNEMEFELIGTPTYSSTSVMDATRPYLERRYVQIMFEYDFQDFTYGGSGTEVIPIKYRVAGSMTLLRNINTQIPDEDQQIEW
# How the values were obtained:
# Assay in all cases: glycan array binding signal (z-score within array); higher = stronger binding
# Settings in all cases: glycan notation: IUPAC condensed, linker removed
# [1] = target: Gal6S(b1-4)Glc
# How it was run: (§1)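 Negative Z-scores can be read as non-binding. The Z-score is calculated within each array and then averaged across arrays of one protein sequence at different concentrations or buffers and across linkers. Arrays, 3228 in all, were curated from the Consortium for Functional Glycomics database and kept only where the protein sequence was available.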
# [2] = target: Gal6S(b1-4)Glc6S
# How it was run: as §1
# [3] = target: Gal6S(b1-4)GlcNAc
# How it was run: as §1
# [4] = target: Gal6S(b1-4)GlcNAc6S
# How it was run: as §1
# [5] = target: GalNAc(a1-3)Gal
# How it was run: as §1
# [6] = target: GalNAc(a1-3)GalNAc
# How it was run: as §1
# [7] = target: GalNAc(a1-3)GalNAc(b1-3)Gal(a1-4)Gal(b1-4)Glc
# How it was run: as §1
# [8] = target: GalNAc(a1-3)GalNAc(b1-3)Gal(a1-4)Gal(b1-4)GlcNAc
# How it was run: as §1
# [9] = target: GalNAc(b1-3)Gal
# How it was run: as §1
# [10] = target: GalNAc(b1-3)Gal(a1-4)Gal(b1-4)GlcNAc
# How it was run: as §1
# [11] = target: GalNAc(b1-3)Gal(a1-4)Gal(b1-4)GlcNAc(b1-3)Gal(b1-4)Glc
# How it was run: as §1
# [12] = target: GalNAc(b1-3)Gal(a1-6)Gal(b1-4)Glc
# How it was run: as §1
# [13] = target: GalNAc(b1-3)GalNAc
# How it was run: as §1
# [14] = target: GalNAc(b1-3)GlcNAc
# How it was run: as §1
# [15] = target: GalNAc(b1-4)Gal(b1-4)Glc
# How it was run: as §1
# [16] = target: GalNAc(b1-4)GlcNAc
# How it was run: as §1
# [17] = target: GalNAc(b1-4)GlcNAc(b1-2)Man
# How it was run: as §1
# [18] = target: GalNAc(b1-4)GlcNAc(b1-2)Man(a1-3)[GalNAc(b1-4)GlcNAc(b1-2)Man(a1-6)]Man(b1-4)GlcNAc(b1-4)GlcNAc
# How it was run: as §1
# [19] = target: GalNAc(b1-4)GlcNAc(b1-3)GalNAc(b1-4)GlcNAc
# How it was run: as §1
# [20] = target: GalNAc(b1-4)GlcNAc6S
# How it was run: as §1
# [21] = target: GalNAc(b1-6)GalNAc
# How it was run: as §1
# [22] = target: GalNAc3S(b1-4)GlcNAc
# How it was run: as §1
# [23] = target: GalNAc3S(b1-4)GlcNAc3S
# How it was run: as §1
# [24] = target: GalNAc3S(b1-4)[Fuc(a1-3)]GlcNAc
# How it was run: as §1
# [25] = target: GalNAc4S6S(b1-4)GlcNAc
# How it was run: as §1
# [26] = target: GalNAc6S(b1-4)GlcNAc
# How it was run: as §1
# [27] = target: Glc(a1-4)Glc
# How it was run: as §1
# [28] = target: Glc(a1-4)Glc(a1-4)Glc(a1-4)Glc
# How it was run: as §1
# [29] = target: Glc(a1-6)Glc(a1-6)Glc
# How it was run: as §1
# [30] = target: Glc(a1-6)Glc(a1-6)Glc(a1-6)Glc
# How it was run: as §1
# [31] = target: Glc(b1-4)Glc
# How it was run: as §1
# [32] = target: Glc(b1-6)Glc
# How it was run: as §1
# [33] = target: GlcA(b1-3)Gal
# How it was run: as §1
# [34] = target: GlcA(b1-3)GlcNAc
# How it was run: as §1
# [35] = target: GlcA(b1-6)Gal
# How it was run: as §1
# [36] = target: GlcA3S(b1-3)Gal(b1-4)GlcNAc(b1-2)Man
# How it was run: as §1
# [37] = target: GlcA3S(b1-3)Gal(b1-4)GlcNAc(b1-3)Gal(b1-4)Glc
# How it was run: as §1
binder,measurement,setting,value
B1,glycan array binding signal (z-score),[1],0.383
same,glycan array binding signal (z-score),[2],-0.43
same,glycan array binding signal (z-score),[3],1.87
same,glycan array binding signal (z-score),[4],-0.252
same,glycan array binding signal (z-score),[5],3.52
same,glycan array binding signal (z-score),[6],0.36
same,glycan array binding signal (z-score),[7],0.105
same,glycan array binding signal (z-score),[8],-0.422
same,glycan array binding signal (z-score),[9],0.012
same,glycan array binding signal (z-score),[10],0.132
same,glycan array binding signal (z-score),[11],-0.135
same,glycan array binding signal (z-score),[12],-0.512
same,glycan array binding signal (z-score),[13],-0.649
same,glycan array binding signal (z-score),[14],0.454
same,glycan array binding signal (z-score),[15],0.581
same,glycan array binding signal (z-score),[16],0.63
same,glycan array binding signal (z-score),[17],0.08
same,glycan array binding signal (z-score),[18],1.73
same,glycan array binding signal (z-score),[19],1.39
same,glycan array binding signal (z-score),[20],0.196
same,glycan array binding signal (z-score),[21],-0.071
same,glycan array binding signal (z-score),[22],-0.595
same,glycan array binding signal (z-score),[23],-0.334
same,glycan array binding signal (z-score),[24],-0.323
same,glycan array binding signal (z-score),[25],-0.182
same,glycan array binding signal (z-score),[26],-0.445
same,glycan array binding signal (z-score),[27],0.066
same,glycan array binding signal (z-score),[28],-0.584
same,glycan array binding signal (z-score),[29],-0.215
same,glycan array binding signal (z-score),[30],0.063
same,glycan array binding signal (z-score),[31],-0.689
same,glycan array binding signal (z-score),[32],-0.519
same,glycan array binding signal (z-score),[33],0.229
same,glycan array binding signal (z-score),[34],0.317
same,glycan array binding signal (z-score),[35],-0.251
same,glycan array binding signal (z-score),[36],-0.331
same,glycan array binding signal (z-score),[37],-0.016

# Some of the entries so far, as tab-separated lines.
binder	measurement	setting	value
B1	glycan array binding signal (z-score)	[2]	-0.43
same	glycan array binding signal (z-score)	[8]	-0.422
